The target in test [1] is T1, EID-deleted GTE4 (ΔEID), yeast two-hybrid fusion (Arabidopsis thaliana) (UniProt Q9LNC4).
T1 sequence: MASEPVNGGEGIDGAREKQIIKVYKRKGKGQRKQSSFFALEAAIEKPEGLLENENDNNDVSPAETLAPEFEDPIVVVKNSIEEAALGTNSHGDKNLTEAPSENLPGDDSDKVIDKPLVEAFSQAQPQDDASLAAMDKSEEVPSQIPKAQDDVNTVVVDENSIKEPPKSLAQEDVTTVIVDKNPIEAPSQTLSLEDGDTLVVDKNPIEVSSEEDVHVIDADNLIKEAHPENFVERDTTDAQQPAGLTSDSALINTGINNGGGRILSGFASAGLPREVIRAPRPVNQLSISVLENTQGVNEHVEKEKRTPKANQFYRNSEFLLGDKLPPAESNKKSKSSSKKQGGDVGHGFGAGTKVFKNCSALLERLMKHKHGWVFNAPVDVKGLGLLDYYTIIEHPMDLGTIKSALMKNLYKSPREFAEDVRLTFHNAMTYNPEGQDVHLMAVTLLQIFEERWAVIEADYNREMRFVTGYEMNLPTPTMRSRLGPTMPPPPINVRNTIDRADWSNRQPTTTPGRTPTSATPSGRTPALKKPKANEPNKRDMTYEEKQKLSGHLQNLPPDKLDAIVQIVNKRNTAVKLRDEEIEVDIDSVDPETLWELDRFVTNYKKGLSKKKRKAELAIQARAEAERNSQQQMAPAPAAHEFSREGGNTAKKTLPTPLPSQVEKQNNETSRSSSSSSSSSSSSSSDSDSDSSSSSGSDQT
Kind of test: two-hybrid.

Test [2] deals with T2, GTE4 EML-interacting domain (amino acids 251-316), yeast two-hybrid fusion (Arabidopsis thaliana) (UniProt Q9LNC4).
T2 sequence: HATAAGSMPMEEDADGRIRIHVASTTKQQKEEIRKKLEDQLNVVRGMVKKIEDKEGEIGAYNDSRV
Description: two-hybrid.

The target of test [3] is T3, GTE4, full-length, yeast two-hybrid fusion (Arabidopsis thaliana) (UniProt Q9LNC4).
T3 sequence: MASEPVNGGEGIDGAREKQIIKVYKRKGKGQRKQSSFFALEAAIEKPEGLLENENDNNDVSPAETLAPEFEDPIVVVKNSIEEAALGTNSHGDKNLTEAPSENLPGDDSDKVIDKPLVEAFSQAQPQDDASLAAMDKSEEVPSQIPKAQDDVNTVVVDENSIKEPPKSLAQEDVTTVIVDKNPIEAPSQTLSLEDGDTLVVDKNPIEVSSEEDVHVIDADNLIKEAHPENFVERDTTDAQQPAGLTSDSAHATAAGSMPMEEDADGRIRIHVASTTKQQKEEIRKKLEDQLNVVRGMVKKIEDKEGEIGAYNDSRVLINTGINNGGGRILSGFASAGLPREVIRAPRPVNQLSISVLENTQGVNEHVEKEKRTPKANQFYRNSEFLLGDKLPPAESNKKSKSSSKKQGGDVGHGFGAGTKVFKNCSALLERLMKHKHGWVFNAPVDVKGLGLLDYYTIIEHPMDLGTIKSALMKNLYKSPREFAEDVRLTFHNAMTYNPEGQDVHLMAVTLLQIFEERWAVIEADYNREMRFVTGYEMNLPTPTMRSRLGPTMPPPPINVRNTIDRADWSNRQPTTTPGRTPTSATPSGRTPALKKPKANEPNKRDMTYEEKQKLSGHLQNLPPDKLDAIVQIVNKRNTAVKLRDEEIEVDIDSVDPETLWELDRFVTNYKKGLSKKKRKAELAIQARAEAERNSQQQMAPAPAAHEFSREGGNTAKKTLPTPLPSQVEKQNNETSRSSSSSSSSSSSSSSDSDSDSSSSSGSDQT
Kind of test: two-hybrid.

In test [4] the target is T4, GTE4-FLAG (Arabidopsis thaliana) (UniProt Q9LNC4).
T4 sequence: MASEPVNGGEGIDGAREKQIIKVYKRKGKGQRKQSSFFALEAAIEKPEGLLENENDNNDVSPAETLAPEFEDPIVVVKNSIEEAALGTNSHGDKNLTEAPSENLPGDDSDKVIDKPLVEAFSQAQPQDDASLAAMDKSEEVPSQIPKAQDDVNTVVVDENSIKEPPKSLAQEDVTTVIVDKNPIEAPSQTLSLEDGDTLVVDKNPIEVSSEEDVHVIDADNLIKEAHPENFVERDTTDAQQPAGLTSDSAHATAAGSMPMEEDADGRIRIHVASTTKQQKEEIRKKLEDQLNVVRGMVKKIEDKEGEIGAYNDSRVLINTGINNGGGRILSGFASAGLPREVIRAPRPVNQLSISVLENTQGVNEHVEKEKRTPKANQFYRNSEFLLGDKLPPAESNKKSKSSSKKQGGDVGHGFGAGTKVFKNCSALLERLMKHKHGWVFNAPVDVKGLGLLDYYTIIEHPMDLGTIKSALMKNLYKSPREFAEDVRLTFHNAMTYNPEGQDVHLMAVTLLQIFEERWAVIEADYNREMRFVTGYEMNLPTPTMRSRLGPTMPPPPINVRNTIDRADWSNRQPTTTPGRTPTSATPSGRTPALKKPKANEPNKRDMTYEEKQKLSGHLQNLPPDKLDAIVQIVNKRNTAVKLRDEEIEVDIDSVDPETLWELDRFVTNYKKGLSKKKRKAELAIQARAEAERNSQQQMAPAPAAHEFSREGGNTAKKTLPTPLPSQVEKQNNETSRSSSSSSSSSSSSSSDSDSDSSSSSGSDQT
Kind of test: co-IP.

In test [5] the target is T5, GTE4-ΔEID-FLAG (Arabidopsis thaliana) (UniProt Q9LNC4).
T5 sequence: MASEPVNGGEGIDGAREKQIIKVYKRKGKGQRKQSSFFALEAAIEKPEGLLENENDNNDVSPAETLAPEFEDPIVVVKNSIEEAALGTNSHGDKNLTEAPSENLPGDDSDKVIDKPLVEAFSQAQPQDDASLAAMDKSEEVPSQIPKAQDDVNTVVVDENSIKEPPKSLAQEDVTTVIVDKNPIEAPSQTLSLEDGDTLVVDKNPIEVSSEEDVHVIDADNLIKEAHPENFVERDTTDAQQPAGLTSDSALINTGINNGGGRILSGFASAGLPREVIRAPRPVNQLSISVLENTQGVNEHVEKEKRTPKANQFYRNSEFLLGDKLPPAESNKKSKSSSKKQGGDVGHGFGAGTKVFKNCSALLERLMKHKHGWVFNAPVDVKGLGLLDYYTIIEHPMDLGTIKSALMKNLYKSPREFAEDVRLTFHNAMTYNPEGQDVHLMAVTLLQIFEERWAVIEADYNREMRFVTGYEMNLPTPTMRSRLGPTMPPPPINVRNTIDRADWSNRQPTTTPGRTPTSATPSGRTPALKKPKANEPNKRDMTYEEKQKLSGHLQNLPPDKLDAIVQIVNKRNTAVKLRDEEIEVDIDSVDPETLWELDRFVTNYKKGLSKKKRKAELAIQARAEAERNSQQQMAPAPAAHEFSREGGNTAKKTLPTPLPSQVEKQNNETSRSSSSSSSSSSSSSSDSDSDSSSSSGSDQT
Description: co-IP.

Test [6] addresses T6, EML1, full-length, yeast two-hybrid fusion (Arabidopsis thaliana) (UniProt Q9C7C4).
T6 sequence: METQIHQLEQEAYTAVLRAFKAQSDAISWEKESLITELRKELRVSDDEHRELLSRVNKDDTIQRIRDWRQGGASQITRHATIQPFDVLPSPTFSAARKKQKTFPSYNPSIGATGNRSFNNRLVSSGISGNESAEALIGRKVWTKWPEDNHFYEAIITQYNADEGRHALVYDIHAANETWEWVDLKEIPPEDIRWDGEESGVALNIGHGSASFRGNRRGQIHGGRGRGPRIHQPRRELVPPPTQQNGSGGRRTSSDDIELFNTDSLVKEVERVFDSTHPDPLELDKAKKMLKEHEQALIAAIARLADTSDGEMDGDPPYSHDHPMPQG
Kind of test: two-hybrid.

No constants are given. Whether binding was seen depends on the method and setting. For some assays here: Binding seen in cells or lysates may run through a third protein. Some results given as binding are weak or reduced against the parent protein; the word gives no strength. Sequences can lack the tags named with a protein.

B1: EML1, full-length, yeast two-hybrid fusion (protein, UniProt Q9C7C4 1-327)
chain: METQIHQLEQEAYTAVLRAFKAQSDAISWEKESLITELRKELRVSDDEHRELLSRVNKDDTIQRIRDWRQGGASQITRHATIQPFDVLPSPTFSAARKKQKTFPSYNPSIGATGNRSFNNRLVSSGISGNESAEALIGRKVWTKWPEDNHFYEAIITQYNADEGRHALVYDIHAANETWEWVDLKEIPPEDIRWDGEESGVALNIGHGSASFRGNRRGQIHGGRGRGPRIHQPRRELVPPPTQQNGSGGRRTSSDDIELFNTDSLVKEVERVFDSTHPDPLELDKAKKMLKEHEQALIAAIARLADTSDGEMDGDPPYSHDHPMPQG
Regarding B1, the binding result was “no binding” in test [1], “binds” in test [2] and “binds” in test [3].

B2: EML2-Myc (protein, UniProt Q9FG29 1-313)
chain: MEAQIHILEQEAYSAVLRAFQAQADEFSWDKATVMTNLRKELRISDDENRQLLNNVHNDDLIKRIRDSRPRGGNQVVRHQSLDVHPSPTFSASRKKQKTFQSYPSIGSTRSKSFNNRVVSANEPAEALIGRKVWTKWPEDNSFYEAVVTQYNANEGRHALVYDINTVNETWEWVDLNEIPTKDIRWDGEEDGVTLNVGHGGGTTRGNRRTLSHGGRGRGPRTQPRREHLATENGGGRKFFGEIELFNTDSLVKEVERVFDSNLPDPHELDKAKKLLKEHEQALIAAIARLTDASDYESDGEEPYSHELPMLLG
For the molecule B2, the binding entry in test [4] is listed as “binds”; in test [5], “no binding”.

B3: EML2, full-length, yeast two-hybrid fusion (protein, UniProt Q9FG29 1-313)
chain: MEAQIHILEQEAYSAVLRAFQAQADEFSWDKATVMTNLRKELRISDDENRQLLNNVHNDDLIKRIRDSRPRGGNQVVRHQSLDVHPSPTFSASRKKQKTFQSYPSIGSTRSKSFNNRVVSANEPAEALIGRKVWTKWPEDNSFYEAVVTQYNANEGRHALVYDINTVNETWEWVDLNEIPTKDIRWDGEEDGVTLNVGHGGGTTRGNRRTLSHGGRGRGPRTQPRREHLATENGGGRKFFGEIELFNTDSLVKEVERVFDSNLPDPHELDKAKKLLKEHEQALIAAIARLTDASDYESDGEEPYSHELPMLLG
Take B3: the binding result in test [6] and in test [3] was “binds” throughout.

B4: N-terminal region of EML1 (amino acids 1-293), yeast two-hybrid fusion (domain or fragment, UniProt Q9C7C4 1-293)
chain: METQIHQLEQEAYTAVLRAFKAQSDAISWEKESLITELRKELRVSDDEHRELLSRVNKDDTIQRIRDWRQGGASQITRHATIQPFDVLPSPTFSAARKKQKTFPSYNPSIGATGNRSFNNRLVSSGISGNESAEALIGRKVWTKWPEDNHFYEAIITQYNADEGRHALVYDIHAANETWEWVDLKEIPPEDIRWDGEESGVALNIGHGSASFRGNRRGQIHGGRGRGPRIHQPRRELVPPPTQQNGSGGRRTSSDDIELFNTDSLVKEVERVFDSTHPDPLELDKAKKMLKEH
Regarding B4, the binding result in test [3] is “binds”.
